Results on 4 molecules are retold here after doi:10.1101/2021.06.01.446527.

Protein sequences, listed by entry. Tags and fused reporters are not part of them.
UniProt P52630: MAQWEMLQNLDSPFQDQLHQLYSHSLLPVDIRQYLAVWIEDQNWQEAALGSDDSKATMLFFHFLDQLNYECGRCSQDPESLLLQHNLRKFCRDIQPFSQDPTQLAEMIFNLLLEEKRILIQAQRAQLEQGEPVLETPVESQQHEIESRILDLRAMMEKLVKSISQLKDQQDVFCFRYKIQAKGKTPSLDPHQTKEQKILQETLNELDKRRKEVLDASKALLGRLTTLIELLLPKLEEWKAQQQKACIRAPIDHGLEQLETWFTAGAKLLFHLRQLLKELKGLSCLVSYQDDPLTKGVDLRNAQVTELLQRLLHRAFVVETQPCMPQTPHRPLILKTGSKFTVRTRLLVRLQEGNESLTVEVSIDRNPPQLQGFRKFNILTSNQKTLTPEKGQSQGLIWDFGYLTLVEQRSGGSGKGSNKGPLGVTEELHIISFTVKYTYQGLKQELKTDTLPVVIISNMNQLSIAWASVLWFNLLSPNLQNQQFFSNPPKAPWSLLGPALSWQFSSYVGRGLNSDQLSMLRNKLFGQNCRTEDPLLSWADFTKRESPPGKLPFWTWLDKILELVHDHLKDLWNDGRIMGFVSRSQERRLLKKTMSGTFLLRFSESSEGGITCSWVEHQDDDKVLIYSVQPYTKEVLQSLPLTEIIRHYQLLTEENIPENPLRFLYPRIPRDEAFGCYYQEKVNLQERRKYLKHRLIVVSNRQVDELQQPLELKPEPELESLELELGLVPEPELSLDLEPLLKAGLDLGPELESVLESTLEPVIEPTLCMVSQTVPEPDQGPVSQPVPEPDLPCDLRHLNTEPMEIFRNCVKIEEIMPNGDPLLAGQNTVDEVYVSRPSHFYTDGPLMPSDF

Sequences and labels used below:
T1: V5-tagged IFNAR2 cytosolic domain (aa 265-515) (UniProt P48551)
T1 sequence: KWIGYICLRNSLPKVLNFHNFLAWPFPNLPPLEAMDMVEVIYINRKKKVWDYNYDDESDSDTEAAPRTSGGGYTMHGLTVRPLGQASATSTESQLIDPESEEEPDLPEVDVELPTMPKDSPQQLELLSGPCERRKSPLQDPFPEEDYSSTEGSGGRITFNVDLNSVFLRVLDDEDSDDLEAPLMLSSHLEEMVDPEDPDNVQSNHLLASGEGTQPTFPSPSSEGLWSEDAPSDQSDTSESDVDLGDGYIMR

B1: Flag-tagged wt USP18 (USP18.wt-3XFlag) (enzyme, UniProt Q9UMW8-1 1-372)
chain: MSKAFGLLRQICQSILAESSQSPADLEEKKEEDSNMKREQPRERPRAWDYPHGLVGLHNIGQTCCLNSLIQVFVMNVDFTRILKRITVPRGADEQRRSVPFQMLLLLEKMQDSRQKAVRPLELAYCLQKCNVPLFVQHDAAQLYLKLWNLIKDQITDVHLVERLQALYTIRVKDSLICVDCAMESSRNSSMLTLPLSLFDVDSKPLKTLEDALHCFFQPRELSSKSKCFCENCGKKTRGKQVLKLTHLPQTLTIHLMRFSIRNSQTRKICHSLYFPQSLDFSQILPMKRESCDAEEQSGGQYELFAVIAHVGMADSGHYCVYIRNAVDGKWFCFNDSNICLVSWEDIQCTYGNPNYHWQETAYLLVYMKMEC
B2: Flag-tagged USP18.I60N (USP18.I60N-3XFlag) (enzyme, UniProt Q9UMW8-1 1-372)
chain: B1 chain with I60N
B3: Flag-tagged catalytically inactive USP18.C64S (USP18.C64S-3XFlag) (enzyme, UniProt Q9UMW8-1 1-372)
chain: B1 chain with C64S

Numbering of substitutions follows the chain as printed. Names may count otherwise. These are yes or no findings as the source states them, for the method shown. In cells and extracts the contact can be indirect. Some binding calls cover weakened binding; strength is not graded here. Where a sequence is shown, tags or fusion partners need not be part of it.

For this test, the target named is T1, V5-tagged IFNAR2 cytosolic domain (aa 265-515). The test is described as follows: co-IP.
Take “Myc-tagged STAT2 (STAT2-Myc) (from UniProt P52630 1-851)”: the binding entry was “binds”.

For B1, the binding result was “binds”. B2: the binding entry is reported as “binds”. Take B3: the binding result is “binds”.
